These are yes or no findings as the source states them, for the method shown. In cells and extracts the contact can be indirect. Some entries that bind do so weakly or less than the wild type. Where a sequence is shown, tags or fusion partners need not be part of it.
Biological target: T1, Myc-SNAP-23 (UniProt O09044)
T1 sequence: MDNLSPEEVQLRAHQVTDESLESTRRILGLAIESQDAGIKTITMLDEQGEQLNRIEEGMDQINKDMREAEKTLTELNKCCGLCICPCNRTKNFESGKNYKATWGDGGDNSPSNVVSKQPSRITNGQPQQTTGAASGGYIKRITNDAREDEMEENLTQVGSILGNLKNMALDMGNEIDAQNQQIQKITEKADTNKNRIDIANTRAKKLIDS
Test: co-IP; lysates of J774 cells stably co-expressing mVenus-tagged proteins and Myc-SNAP-23, with or without zymosan; immunoprecipitated with anti-Myc antibodies, Western blot

B1: mVenus-MORN2 wt (membrane occupation and recognition nexus repeat-containing-2), full-length form (protein, UniProt Q6UL01 2-79)
chain: NGFGRLEHFSGAVYEGQFKDNMFHGLGTYTFPTGAKYTGNFNENRVEGEGEYTDTQGLQWCGNFHFTAAPGLKLKLYM
Question: Which binding does the source give for B1 here?
Answer: Its binding is “binds”.

Reference: PMC7327995
